The results in this text go back to the supplement of paper PMC12067093, “Discovery and optimisation of a covalent ligand for TRIM25 and its application to targeted protein ubiquitination” (Chemical Science, 2025).

By UniProt entry, the sequences of proteins in these tests, tags left out. Where a name states a change or a piece, a line headed by the entry shows the natural chain unless it says otherwise.
UniProt P29144: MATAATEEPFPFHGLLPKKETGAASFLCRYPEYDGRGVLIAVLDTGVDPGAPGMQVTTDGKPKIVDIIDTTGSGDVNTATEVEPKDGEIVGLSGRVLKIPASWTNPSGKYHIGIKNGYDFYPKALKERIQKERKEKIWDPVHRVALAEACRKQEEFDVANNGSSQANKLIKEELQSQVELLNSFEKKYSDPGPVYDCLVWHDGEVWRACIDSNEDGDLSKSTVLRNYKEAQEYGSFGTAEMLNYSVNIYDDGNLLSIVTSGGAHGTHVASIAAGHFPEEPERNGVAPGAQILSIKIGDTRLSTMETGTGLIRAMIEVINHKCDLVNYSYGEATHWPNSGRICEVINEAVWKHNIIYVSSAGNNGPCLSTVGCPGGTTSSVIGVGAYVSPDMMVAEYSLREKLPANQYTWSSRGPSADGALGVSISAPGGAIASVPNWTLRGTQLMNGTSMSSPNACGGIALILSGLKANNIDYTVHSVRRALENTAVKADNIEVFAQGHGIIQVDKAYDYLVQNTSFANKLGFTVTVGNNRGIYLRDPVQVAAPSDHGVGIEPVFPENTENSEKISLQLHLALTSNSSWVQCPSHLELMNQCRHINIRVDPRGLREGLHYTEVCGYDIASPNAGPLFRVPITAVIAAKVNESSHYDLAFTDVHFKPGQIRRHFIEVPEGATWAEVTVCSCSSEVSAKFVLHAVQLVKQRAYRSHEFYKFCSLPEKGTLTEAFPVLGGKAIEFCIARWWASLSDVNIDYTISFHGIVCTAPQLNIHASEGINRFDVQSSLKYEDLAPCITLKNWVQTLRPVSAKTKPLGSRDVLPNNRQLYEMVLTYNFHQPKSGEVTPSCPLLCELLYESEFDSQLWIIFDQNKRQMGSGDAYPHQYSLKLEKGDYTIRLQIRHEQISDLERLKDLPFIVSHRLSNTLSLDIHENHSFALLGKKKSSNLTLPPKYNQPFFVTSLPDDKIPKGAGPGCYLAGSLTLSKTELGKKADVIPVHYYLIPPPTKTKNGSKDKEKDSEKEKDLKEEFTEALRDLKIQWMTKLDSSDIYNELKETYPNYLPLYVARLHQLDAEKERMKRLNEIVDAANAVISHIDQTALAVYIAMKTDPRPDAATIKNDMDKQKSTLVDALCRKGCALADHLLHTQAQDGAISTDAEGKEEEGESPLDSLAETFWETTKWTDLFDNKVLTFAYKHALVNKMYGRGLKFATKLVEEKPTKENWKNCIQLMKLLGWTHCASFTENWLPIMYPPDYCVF
UniProt Q14258, whole entry, looked up: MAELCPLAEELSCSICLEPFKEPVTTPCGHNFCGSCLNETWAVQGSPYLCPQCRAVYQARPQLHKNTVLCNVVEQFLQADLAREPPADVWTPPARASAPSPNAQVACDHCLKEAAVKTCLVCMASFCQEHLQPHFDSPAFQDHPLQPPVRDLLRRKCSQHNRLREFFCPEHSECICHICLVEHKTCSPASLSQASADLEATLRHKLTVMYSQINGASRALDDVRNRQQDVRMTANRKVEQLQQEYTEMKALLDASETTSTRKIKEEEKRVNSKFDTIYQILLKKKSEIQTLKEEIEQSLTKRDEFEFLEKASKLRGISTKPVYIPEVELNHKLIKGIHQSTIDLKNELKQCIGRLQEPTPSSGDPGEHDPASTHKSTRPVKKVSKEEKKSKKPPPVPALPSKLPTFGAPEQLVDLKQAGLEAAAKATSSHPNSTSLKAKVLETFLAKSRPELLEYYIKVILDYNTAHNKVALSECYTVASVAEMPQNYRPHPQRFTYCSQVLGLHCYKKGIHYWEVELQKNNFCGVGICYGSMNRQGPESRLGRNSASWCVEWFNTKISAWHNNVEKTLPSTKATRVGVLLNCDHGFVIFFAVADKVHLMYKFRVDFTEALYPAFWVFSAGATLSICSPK
UniProt O15164: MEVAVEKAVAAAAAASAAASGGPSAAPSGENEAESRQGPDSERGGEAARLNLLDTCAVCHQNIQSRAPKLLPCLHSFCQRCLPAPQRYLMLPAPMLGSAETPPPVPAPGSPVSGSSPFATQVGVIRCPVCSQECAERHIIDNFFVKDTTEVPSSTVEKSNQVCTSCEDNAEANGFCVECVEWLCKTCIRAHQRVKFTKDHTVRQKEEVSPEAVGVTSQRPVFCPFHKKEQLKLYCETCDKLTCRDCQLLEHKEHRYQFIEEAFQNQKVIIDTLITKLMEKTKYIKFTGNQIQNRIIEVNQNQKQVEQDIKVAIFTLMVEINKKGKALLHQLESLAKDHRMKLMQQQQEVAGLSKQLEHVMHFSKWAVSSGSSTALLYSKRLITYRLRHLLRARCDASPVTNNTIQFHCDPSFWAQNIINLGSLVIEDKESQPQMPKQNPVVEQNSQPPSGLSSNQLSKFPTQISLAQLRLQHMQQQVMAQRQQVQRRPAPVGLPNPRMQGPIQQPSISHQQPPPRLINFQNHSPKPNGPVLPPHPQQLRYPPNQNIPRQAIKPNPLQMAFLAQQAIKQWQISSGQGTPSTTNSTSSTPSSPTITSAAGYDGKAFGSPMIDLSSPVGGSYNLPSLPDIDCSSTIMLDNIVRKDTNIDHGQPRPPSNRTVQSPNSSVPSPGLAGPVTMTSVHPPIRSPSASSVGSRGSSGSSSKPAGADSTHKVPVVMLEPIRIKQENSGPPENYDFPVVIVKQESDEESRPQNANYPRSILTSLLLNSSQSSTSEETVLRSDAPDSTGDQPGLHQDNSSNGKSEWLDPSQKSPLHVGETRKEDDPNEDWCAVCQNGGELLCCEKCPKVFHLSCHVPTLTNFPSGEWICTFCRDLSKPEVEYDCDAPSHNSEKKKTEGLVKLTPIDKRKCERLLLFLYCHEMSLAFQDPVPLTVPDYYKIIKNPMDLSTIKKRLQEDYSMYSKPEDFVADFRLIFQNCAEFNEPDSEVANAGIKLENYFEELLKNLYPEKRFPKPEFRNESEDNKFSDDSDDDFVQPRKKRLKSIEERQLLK
UniProt Q9NQ86: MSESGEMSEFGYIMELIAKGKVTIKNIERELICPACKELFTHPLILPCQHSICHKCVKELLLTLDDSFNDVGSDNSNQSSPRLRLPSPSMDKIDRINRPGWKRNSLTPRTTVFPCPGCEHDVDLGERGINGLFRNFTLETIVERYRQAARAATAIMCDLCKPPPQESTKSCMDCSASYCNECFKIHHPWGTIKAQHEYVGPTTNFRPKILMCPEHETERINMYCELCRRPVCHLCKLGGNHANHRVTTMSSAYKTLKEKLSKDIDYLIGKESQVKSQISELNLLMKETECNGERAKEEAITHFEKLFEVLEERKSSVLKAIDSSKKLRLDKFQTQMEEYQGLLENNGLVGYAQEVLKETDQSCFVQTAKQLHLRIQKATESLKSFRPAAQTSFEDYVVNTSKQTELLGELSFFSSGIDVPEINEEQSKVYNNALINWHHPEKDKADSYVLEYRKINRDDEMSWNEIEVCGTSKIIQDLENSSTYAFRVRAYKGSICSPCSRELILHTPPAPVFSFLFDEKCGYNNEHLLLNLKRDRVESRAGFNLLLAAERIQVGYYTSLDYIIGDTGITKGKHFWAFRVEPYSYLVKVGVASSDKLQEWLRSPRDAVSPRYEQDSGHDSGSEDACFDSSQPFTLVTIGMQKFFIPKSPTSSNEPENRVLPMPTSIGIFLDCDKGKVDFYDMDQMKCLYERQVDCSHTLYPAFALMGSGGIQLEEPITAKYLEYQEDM
UniProt Q9Y2L5: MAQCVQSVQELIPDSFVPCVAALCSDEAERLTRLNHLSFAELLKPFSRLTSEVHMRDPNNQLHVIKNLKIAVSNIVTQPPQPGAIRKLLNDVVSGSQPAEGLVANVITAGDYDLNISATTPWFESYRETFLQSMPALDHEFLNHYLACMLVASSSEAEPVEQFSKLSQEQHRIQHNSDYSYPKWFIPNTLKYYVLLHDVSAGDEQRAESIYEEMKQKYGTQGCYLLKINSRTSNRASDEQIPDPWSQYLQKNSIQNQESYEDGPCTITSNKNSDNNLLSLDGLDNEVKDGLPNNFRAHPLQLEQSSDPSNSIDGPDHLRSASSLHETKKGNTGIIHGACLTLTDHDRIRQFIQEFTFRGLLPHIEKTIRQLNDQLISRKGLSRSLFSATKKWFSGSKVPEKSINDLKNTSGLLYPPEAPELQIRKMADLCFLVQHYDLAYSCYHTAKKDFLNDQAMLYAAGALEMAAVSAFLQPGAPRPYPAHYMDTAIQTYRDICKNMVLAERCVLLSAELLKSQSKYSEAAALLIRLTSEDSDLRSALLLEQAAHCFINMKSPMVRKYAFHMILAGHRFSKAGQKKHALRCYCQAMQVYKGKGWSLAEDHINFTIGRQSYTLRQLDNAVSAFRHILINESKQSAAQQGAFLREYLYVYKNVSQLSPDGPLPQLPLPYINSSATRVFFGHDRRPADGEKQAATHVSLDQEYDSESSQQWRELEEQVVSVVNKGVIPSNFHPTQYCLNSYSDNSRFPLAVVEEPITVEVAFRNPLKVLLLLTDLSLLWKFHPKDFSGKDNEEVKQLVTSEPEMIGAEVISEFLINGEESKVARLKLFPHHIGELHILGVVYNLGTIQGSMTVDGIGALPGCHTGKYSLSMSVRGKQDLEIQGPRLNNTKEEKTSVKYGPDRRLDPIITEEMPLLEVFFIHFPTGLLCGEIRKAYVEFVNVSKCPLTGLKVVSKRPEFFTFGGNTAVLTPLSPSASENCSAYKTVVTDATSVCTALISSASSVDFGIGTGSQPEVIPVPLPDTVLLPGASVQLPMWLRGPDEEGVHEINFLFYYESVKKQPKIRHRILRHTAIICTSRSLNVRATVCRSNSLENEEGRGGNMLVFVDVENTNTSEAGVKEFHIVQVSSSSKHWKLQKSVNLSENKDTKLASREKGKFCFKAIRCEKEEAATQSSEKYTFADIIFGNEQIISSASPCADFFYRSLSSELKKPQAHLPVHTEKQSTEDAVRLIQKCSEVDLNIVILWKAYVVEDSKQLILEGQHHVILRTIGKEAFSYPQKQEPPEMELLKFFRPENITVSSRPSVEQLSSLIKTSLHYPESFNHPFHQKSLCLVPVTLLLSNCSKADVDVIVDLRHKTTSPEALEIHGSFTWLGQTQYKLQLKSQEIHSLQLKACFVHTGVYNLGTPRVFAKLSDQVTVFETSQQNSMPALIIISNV
UniProt Q12931: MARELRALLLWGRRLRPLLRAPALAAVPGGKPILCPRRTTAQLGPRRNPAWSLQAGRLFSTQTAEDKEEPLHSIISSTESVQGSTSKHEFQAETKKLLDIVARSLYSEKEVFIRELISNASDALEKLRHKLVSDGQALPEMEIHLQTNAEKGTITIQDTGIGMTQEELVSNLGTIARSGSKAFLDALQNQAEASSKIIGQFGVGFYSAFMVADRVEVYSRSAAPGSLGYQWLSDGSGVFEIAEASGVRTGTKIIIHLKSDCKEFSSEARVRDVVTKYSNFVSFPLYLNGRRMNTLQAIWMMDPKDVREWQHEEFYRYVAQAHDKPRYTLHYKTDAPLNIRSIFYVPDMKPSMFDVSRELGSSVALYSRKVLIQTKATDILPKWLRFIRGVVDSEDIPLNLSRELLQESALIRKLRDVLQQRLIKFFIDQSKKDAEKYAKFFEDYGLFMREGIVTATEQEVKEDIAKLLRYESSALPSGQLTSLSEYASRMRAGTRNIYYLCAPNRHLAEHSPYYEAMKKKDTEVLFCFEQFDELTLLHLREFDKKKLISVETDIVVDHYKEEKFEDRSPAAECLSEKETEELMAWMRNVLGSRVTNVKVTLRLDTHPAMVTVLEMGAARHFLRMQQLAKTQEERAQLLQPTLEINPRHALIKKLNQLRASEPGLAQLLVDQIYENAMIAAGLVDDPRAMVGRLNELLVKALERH
UniProt Q13049: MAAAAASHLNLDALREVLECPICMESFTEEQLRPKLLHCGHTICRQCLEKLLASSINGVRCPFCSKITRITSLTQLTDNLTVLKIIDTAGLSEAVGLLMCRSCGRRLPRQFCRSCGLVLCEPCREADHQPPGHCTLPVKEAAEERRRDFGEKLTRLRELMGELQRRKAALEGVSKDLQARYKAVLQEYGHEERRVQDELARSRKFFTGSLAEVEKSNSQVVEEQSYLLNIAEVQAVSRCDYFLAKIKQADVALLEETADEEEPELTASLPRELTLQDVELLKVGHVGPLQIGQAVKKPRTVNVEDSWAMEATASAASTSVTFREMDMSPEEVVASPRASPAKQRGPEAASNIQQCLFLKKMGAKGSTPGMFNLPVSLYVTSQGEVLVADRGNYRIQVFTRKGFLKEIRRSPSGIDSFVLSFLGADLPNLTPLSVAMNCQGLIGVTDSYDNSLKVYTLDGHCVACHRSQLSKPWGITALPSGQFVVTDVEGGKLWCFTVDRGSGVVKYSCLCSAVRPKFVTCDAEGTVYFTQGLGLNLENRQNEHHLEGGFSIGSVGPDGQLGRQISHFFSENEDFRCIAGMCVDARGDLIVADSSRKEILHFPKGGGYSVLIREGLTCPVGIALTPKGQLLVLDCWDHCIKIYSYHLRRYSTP

Compound in this test: CC1Cc2ccccc2N1C(=O)C1CCCN(C1)C(=O)CCl (mixture of isomers) [TRIM25 ligand 11 (diastereomer mixture)]
The experiment in a line: probe-labelled cysteine peptide fold change vs DMSO (competition) (log2 fold change); higher = less target engagement (more negative = stronger competition). To be noted: THP-1, incubation time: 4 h.

Some of the results follow.
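Also: competitive chemoproteomic profiling in live THP-1 cells with an iodoacetamide desthiobiotin (IA-DTB) probe, comparing probe-labelled peptide intensities in compound-treated cells against DMSO-treated controls.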

For the target “TPP1_O14773_365_GLTLLFASGDSGAGCWSVSGR (UniProt O14773)”, the “probe-labelled cysteine peptide fold change” value is -0.14 (10 µM) and 0.117 (50 µM).
On to “TRMT10A_Q8TBZ6_285_ACESASHDNQSVR (UniProt Q8TBZ6)”, for which the “probe-labelled cysteine peptide fold change” value runs as follows: (10 µM) 0.000416; (50 µM) -0.192.
As to “TPP2_P29144_322_CDLVNYSYGEATHWPNSGR (UniProt P29144)”, the “probe-labelled cysteine peptide fold change” value was 0.106 (10 µM) and 0.257 (50 µM).
The corresponding values for “TPM4_P67936_247_EENVGLHQTLDQTLNELNCI (UniProt P67936)” are 0.373 and -0.123.
Take “TRAF6_Q9Y4K3_85_EAVQTPCGHR (UniProt Q9Y4K3)”: the “probe-labelled cysteine peptide fold change” value stood at 0.00472 (10 µM) and 0.016 (50 µM).
The corresponding values for “TRIM26_Q12899_334_CVTYTSLYK (UniProt Q12899)” are -0.00364 and 0.0904.
Take “TRIM25_Q14258_107+110_ASAPSPNAQVACDHCLK (UniProt Q14258)”: the “probe-labelled cysteine peptide fold change” value was -0.0896 (10 µM) and -0.121 (50 µM).
For “TPX2_Q9ULW0_594_NVTQIEPFCLETDRR (UniProt Q9ULW0)”, in that order: 0.332 and 0.123.
The corresponding values for “TRIM25_Q14258_179_LREFFCPEHSECICHICLVEHK (UniProt Q14258)” are -0.158 and 0.0459.
For the target “TRIM28_Q13263_651+666_VCQKPGDLVMCNQCEFCFHLDCHLPALQDVPGEEWSCSLCHVLPDLK (UniProt Q13263)”, the “probe-labelled cysteine peptide fold change” value reads like this: (10 µM) 0.265; (50 µM) -0.196.
The corresponding values for “TRAPPC13_A5PLN9_127_LNLSASNAAVAELKPDCCIDDVIHHEVK (UniProt A5PLN9)” are 0.241 and 0.12.
For “TRIM33_Q9UPN9_582_GNMNCGAFQAHQMR (UniProt Q9UPN9)”, in that order: -0.131 and -0.266.
The corresponding values for “TRMT10C_Q7L0Y3_335_LNLATECLPLDK (UniProt Q7L0Y3)” are -0.068 and 0.0778.
As to “TRAFD1_O14545_116_TELCGNCGR (UniProt O14545)”, the “probe-labelled cysteine peptide fold change” value is -0.00926 (10 µM) and 0.0109 (50 µM).
For “TPP2_P29144_967_GAGPGCYLAGSLTLSK (UniProt P29144)”, in that order: -0.205 and -0.007.
For “TRANK1_O15050_739_KDDKPTLGAGAPDCSEVGEGHAQVGLGALQLVPDDNR (UniProt O15050)”, in that order: -0.0168 and -0.0611.
“TRIM38_O00635_58_QETFCCPQCR (UniProt O00635)”: the “probe-labelled cysteine peptide fold change” value is -0.00855 (10 µM) and -0.000175 (50 µM).
The corresponding values for “TRIM28_Q13263_717_VLLALFCHEPCRPLHQLATDSTFSLDQPGGTLDLTLIR (UniProt Q13263)” are -0.498 and 0.0654.
In the case of “TRAPPC10_P48553_696_SPSDNSLNTTGIICR (UniProt P48553)”, the “probe-labelled cysteine peptide fold change” value was 0.0251 (10 µM) and -0.124 (50 µM).
In the case of “TRMT13_Q9NUP7_414_ITDDGADCLPGLLSVEEK (UniProt Q9NUP7)”, the “probe-labelled cysteine peptide fold change” value runs as follows: (10 µM) -0.0815; (50 µM) -0.018.
For “TRIM24_O15164_246_DCQLLEHK (UniProt O15164)”, in that order: -0.0322 and 0.016.
As for “TRIM24_O15164_73_LLPCLHSFCQR (UniProt O15164)”, the “probe-labelled cysteine peptide fold change” value by setting is: (10 µM) 0.00462; (50 µM) -0.0214.
The corresponding values for “TRIM56_Q9BRZ2_41_TLPCLHTYCQDCLAQLADGGR (UniProt Q9BRZ2)” are 0.0138 and 0.00329.
With “TRIM14_Q14142_42_CVCALCPVLGAHR (UniProt Q14142)”, the “probe-labelled cysteine peptide fold change” value runs as follows: (10 µM) 0.17; (50 µM) 0.303.
The corresponding values for “TRAF3IP3_Q9Y228_501_ELHSELDNLSDEYLSCLR (UniProt Q9Y228)” are 0.0891 and 0.063.
The corresponding values for “TRIM13_O60858_25_VLPCSHNFCK (UniProt O60858)” are 0.0685 and 0.0148.
For “TRAPPC11_Q7Z392_502_CSYLMAQLK (UniProt Q7Z392)”, in that order: 0.192 and 0.235.
With “TRIM28_Q13263_232_DCQLNAHK (UniProt Q13263)”, the “probe-labelled cysteine peptide fold change” value by setting is: (10 µM) -0.0189; (50 µM) -0.0334.
For “TRIM36_Q9NQ86_521_CGYNNEHLLLNLKR (UniProt Q9NQ86)”, in that order: -0.227 and -0.25.
As for “TRAPPC8_Q9Y2L5_505_CVLLSAELLK (UniProt Q9Y2L5)”, the “probe-labelled cysteine peptide fold change” value reads like this: (10 µM) -0.0145; (50 µM) 0.0327.
For the target “TRIM25_Q14258_176+179_LREFFCPEHSECICHICLVEHK (UniProt Q14258)”, the “probe-labelled cysteine peptide fold change” value runs as follows: (10 µM) -0.0657; (50 µM) 0.023.
For “TRIM28_Q13263_124_QQCFSK (UniProt Q13263)”, in that order: -0.0594 and 0.076.
As to “TRMT1L_Q7Z2T5_186_MGAHYHCIICSATITR (UniProt Q7Z2T5)”, the “probe-labelled cysteine peptide fold change” value by setting is: (10 µM) -0.126; (50 µM) 0.152.
For “TPP2_P29144_150_VALAEACR (UniProt P29144)”, in that order: 0.0185 and 0.0364.
On to “TPMT_P51580_70_VFFPLCGK (UniProt P51580)”, for which the “probe-labelled cysteine peptide fold change” value was 0.0659 (10 µM) and -0.0326 (50 µM).
Turning to “TRMT1L_Q7Z2T5_239_EADTDVQVCPNYSIPQK (UniProt Q7Z2T5)”, the “probe-labelled cysteine peptide fold change” value (10 µM) came to 0.00462 and the “probe-labelled cysteine peptide fold change” value (50 µM) was -0.216.
The corresponding values for “TRAPPC11_Q7Z392_845_CGTVGSR (UniProt Q7Z392)” are 0.201 and 0.296.
For “TRAPPC12_Q8WVT3_663_NAVANNNAAVCLLYLGK (UniProt Q8WVT3)”, in that order: -0.00759 and 0.17.
As for “TRERF1_Q96PN7_514_LTCSICLK (UniProt Q96PN7)”, the “probe-labelled cysteine peptide fold change” value (10 µM) is 0.194 and the “probe-labelled cysteine peptide fold change” value (50 µM) came to 0.0958.
The corresponding values for “TRAPPC11_Q7Z392_282_LCFQHNTPLDAIAQFR (UniProt Q7Z392)” are -0.139 and 0.0789.
Take “TRAP1_Q12931_527_DTEVLFCFEQFDELTLLHLR (UniProt Q12931)”: the “probe-labelled cysteine peptide fold change” value amounted to 0.0593 (10 µM) and 0.194 (50 µM).
For “TRIM28_Q13263_651_VCQKPGDLVMCNQCEFCFHLDCHLPALQDVPGEEWSCSLCHVLPDLK (UniProt Q13263)”, in that order: 0.115 and 0.00701.
Turning to “TRIM28_Q13263_221_HEPLVLFCESCDTLTCR (UniProt Q13263)”, the “probe-labelled cysteine peptide fold change” value is, setting by setting: (10 µM) 0.0223; (50 µM) 0.0632.
For “TRAF3_Q13114_141_NDCHFEELPCVRPDCK (UniProt Q13114)”, in that order: -0.114 and -0.0423.
For “TRIM36_Q9NQ86_53_ELFTHPLILPCQHSICHK (UniProt Q9NQ86)”, in that order: -0.0673 and 0.0772.
For the target “TRMT10C_Q7L0Y3_246_NVDPFHIYFCNLK (UniProt Q7L0Y3)”, the “probe-labelled cysteine peptide fold change” value is -0.0165 (10 µM) and -0.00461 (50 µM).
The corresponding values for “TRAFD1_O14545_90_LAVCQHCDLELSILK (UniProt O14545)” are 0.104 and 0.0865.
The corresponding values for “TRIM32_Q13049_100_IIDTAGLSEAVGLLMCR (UniProt Q13049)” are 0.051 and 0.316.
Turning to “TRAPPC11_Q7Z392_302_KHIDLCK (UniProt Q7Z392)”, the “probe-labelled cysteine peptide fold change” value runs as follows: (10 µM) -0.202; (50 µM) 0.0701.
The corresponding values for “TRIM36_Q9NQ86_363_ETDQSCFVQTAK (UniProt Q9NQ86)” are 0.0132 and -0.0332.
Consider “TRAPPC12_Q8WVT3_731_EGDSFNTQCLK (UniProt Q8WVT3)”, for which the “probe-labelled cysteine peptide fold change” value is -0.0168 (10 µM) and -0.069 (50 µM).
As for “TRIM32_Q13049_134_EADHQPPGHCTLPVK (UniProt Q13049)”, the “probe-labelled cysteine peptide fold change” value is -0.0609 (10 µM) and -0.199 (50 µM).
As for “TPK1_Q9H3S4_88_GCELISTPDQDHTDFTK (UniProt Q9H3S4)”, the “probe-labelled cysteine peptide fold change” value is, setting by setting: (10 µM) 0.0274; (50 µM) -0.182.
For “TRIP4_Q15650_187_LINNCLICGR (UniProt Q15650)”, in that order: -0.00907 and -0.0574.
As to “TRAP1_Q12931_573_SPAAECLSEK (UniProt Q12931)”, the “probe-labelled cysteine peptide fold change” value runs as follows: (10 µM) 0.218; (50 µM) 0.114.
The corresponding values for “TRIP6_Q15654_279+282_LVHDMNHPPSGEYFGQCGGCGEDVVGDGAGVVALDR (UniProt Q15654)” are -0.00459 and -0.0554.
On to “TRIOBP_Q9H2D6_2111_SQEDGHIPPGYISQEACER (UniProt Q9H2D6)”, for which the “probe-labelled cysteine peptide fold change” value is, setting by setting: (10 µM) -0.0378; (50 µM) 0.00666.
For “TRIM21_P19474_92_CAVHGER (UniProt P19474)”, in that order: 0.00183 and 0.00161.
The corresponding values for “TRIM21_P19474_359_EAWDLGVCR (UniProt P19474)” are 0.189 and 0.145.
Take “TRIP6_Q15654_368_AYHPGCFTCVVCHR (UniProt Q15654)”: the “probe-labelled cysteine peptide fold change” value reads like this: (10 µM) 0.00592; (50 µM) -0.0192.
For the target “TRMT1L_Q7Z2T5_265_QLIFCTLAALAEER (UniProt Q7Z2T5)”, the “probe-labelled cysteine peptide fold change” value reads like this: (10 µM) -0.131; (50 µM) 0.115.
For “TPT1_P13693_28_EIADGLCLEVEGK (UniProt P13693)”, the “probe-labelled cysteine peptide fold change” value is -0.0212 (10 µM) and -0.137 (50 µM).
Regarding “TRIT1_Q9H3H1_225_FSNPCILWLHADQAVLDER (UniProt Q9H3H1)”, the “probe-labelled cysteine peptide fold change” value (10 µM) amounted to 0.0869 and the “probe-labelled cysteine peptide fold change” value (50 µM) turned out to be 0.153.
The corresponding values for “TRHDE_Q9UKU6_894_ILLEALTCSDDRNLLNR (UniProt Q9UKU6)” are 0.0166 and 0.256.
For “TRAPPC8_Q9Y2L5_1330_SLCLVPVTLLLSNCSK (UniProt Q9Y2L5)”, in that order: -0.0978 and -0.0472.
“TRAP1_Q12931_527_KDTEVLFCFEQFDELTLLHLR (UniProt Q12931)”: the “probe-labelled cysteine peptide fold change” value (10 µM) is 0.119 and the “probe-labelled cysteine peptide fold change” value (50 µM) worked out at 0.112.
The corresponding values for “TRIP6_Q15654_307+310_VFHVGCFVCSTCR (UniProt Q15654)” are 0.143 and 0.189.
For “TRIM36_Q9NQ86_469_INRDDEMSWNEIEVCGTSK (UniProt Q9NQ86)”, in that order: 0.091 and -0.142.
For “TRIM25_Q14258_174+179_LREFFCPEHSECICHICLVEHK (UniProt Q14258)”, in that order: -0.0441 and -0.0259.
